Results deposited as PubChem BioAssay AID1259405 (NCATS, 2018).
Screen: 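Silenced genes that increase secreted GFP made by CHO cells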 (primary screen). Cells: Chinese hamster CHO-K1 ovary cells with stable secreted eGFP expression. Reagents: single siRNA against mouse genes, 0.8 pmol siRNA per well (2 µl of 400 nM stock). Timing: 3 days. Measurement: 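Percent of the per-plate non-targeting control median for intracellular GFP per well by laser scanning cytometry and for cell viability by ATP luminescence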. Scale: GFP, % of control: higher = more GFP per well, higher productivity; viability (ATP), % of control: higher = more viable cells (more ATP). Call rule: 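Called active when intracellular GFP, relative to negative control, is at or above 120%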.
The deposit covers about 50,000 reagents; below is a part drawn at random. About 4,000 of all reagents (8%) were called active. 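Mouse siRNA library applied to hamster cells; one well for each siRNA.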 The numbers tell different reagents against one gene apart.

| Target gene | siRNA no. | GFP, % of control | viability (ATP), % of control | call |
| --- | --- | --- | --- | --- |
| Mrgpra8 (GeneID 404237) | 1 | 91.6 | 72.8 | inactive |
| Mrgpra8 (GeneID 404237) | 2 | 65.3 | 80.5 | inactive |
| Mrgpra8 (GeneID 404237) | 3 | 69.8 | 50.4 | inactive |
| Mrpl19 (GeneID 56284) | 1 | 54.5 | 51.9 | inactive |
| Mrpl19 (GeneID 56284) | 2 | 59.4 | 64.5 | inactive |
| Mrpl19 (GeneID 56284) | 3 | 120 | 74.5 | active |
| Ubqln4 (GeneID 94232) | 1 | 92.6 | 58.7 | inactive |
| Ubqln4 (GeneID 94232) | 2 | 76.2 | 97.8 | inactive |
| Ubqln4 (GeneID 94232) | 3 | 77.4 | 67.4 | inactive |
| Fbxl22 (GeneID 74165) | 1 | 54 | 58.8 | inactive |
| Fbxl22 (GeneID 74165) | 2 | 25.1 | 28.4 | inactive |
| Fbxl22 (GeneID 74165) | 3 | 92.4 | 82.1 | inactive |
| Sema4g (GeneID 26456) | 1 | 133 | 109 | active |
| Sema4g (GeneID 26456) | 2 | 74.7 | 86.9 | inactive |
| Sema4g (GeneID 26456) | 3 | 76.7 | 89.3 | inactive |
| Lamc3 (GeneID 23928) | 1 | 80.6 | 97.1 | inactive |
| Lamc3 (GeneID 23928) | 2 | 65.2 | 78.2 | inactive |
| Igfl3 (GeneID 232925) | 1 | 67.3 | 91 | inactive |
| Igfl3 (GeneID 232925) | 2 | 89.2 | 83.8 | inactive |
| Igfl3 (GeneID 232925) | 3 | 69.6 | 87 | inactive |
| Pabir2 (GeneID 78755) | 1 | 47.7 | 75.4 | inactive |
| Pabir2 (GeneID 78755) | 2 | 75.5 | 74.7 | inactive |
| Pabir2 (GeneID 78755) | 3 | 92.5 | 121 | inactive |
| Gcgr (GeneID 14527) | 1 | 75.1 | 73.5 | inactive |
| Gcgr (GeneID 14527) | 2 | 56.4 | 43.5 | inactive |
| Gcgr (GeneID 14527) | 3 | 38.9 | 45.3 | inactive |
| Ubr3 (GeneID 68795) | 1 | 79 | 40.5 | inactive |
| Ubr3 (GeneID 68795) | 2 | 73 | 64.5 | inactive |
| Ubr3 (GeneID 68795) | 3 | 55.3 | 76.7 | inactive |
| Ccdc40 (GeneID 207607) | 1 | 55.7 | 72.6 | inactive |
| Ccdc40 (GeneID 207607) | 2 | 71.9 | 87 | inactive |
| Ccdc40 (GeneID 207607) | 3 | 24.8 | 41.2 | inactive |
| Mrps24 (GeneID 64660) | 1 | 79.5 | 88.1 | inactive |
| Mrps24 (GeneID 64660) | 2 | 116 | 27.4 | inactive |
| Mrps24 (GeneID 64660) | 3 | 86.5 | 82.9 | inactive |
| Rps5 (GeneID 20103) | 1 | 60.9 | 39.8 | inactive |
| Rps5 (GeneID 20103) | 2 | 97.5 | 76.2 | inactive |
| Rps5 (GeneID 20103) | 3 | 102 | 54.6 | inactive |
| Pank4 (GeneID 269614) | 1 | 104 | 95.1 | inactive |
| Nudt7 (GeneID 67528) | 1 | 26.8 | 14.3 | inactive |
| Nudt7 (GeneID 67528) | 2 | 47.2 | 90.4 | inactive |
| Nudt7 (GeneID 67528) | 3 | 71.7 | 72.2 | inactive |
| Vat1l (GeneID 270097) | 1 | 125 | 96.6 | active |
| Vat1l (GeneID 270097) | 2 | 79.2 | 40.1 | inactive |
| Vat1l (GeneID 270097) | 3 | 62.4 | 68.2 | inactive |
| Rilpl1 (GeneID 75695) | 1 | 78 | 73.2 | inactive |
| Rilpl1 (GeneID 75695) | 2 | 107 | 82.4 | inactive |
| Rilpl1 (GeneID 75695) | 3 | 58 | 45.6 | inactive |
| Tead3 (GeneID 21678) | 1 | 51.6 | 55.5 | inactive |
| Tead3 (GeneID 21678) | 2 | 79.8 | 80.6 | inactive |
| Tead3 (GeneID 21678) | 3 | 92.1 | 76.5 | inactive |
| Ube3b (GeneID 117146) | 1 | 166 | 56 | active |
| Ube3b (GeneID 117146) | 2 | 89 | 64.9 | inactive |
| Ube3b (GeneID 117146) | 3 | 98.4 | 97.9 | inactive |
| Cenpq (GeneID 83815) | 1 | 76.9 | 46.8 | inactive |
| Cenpq (GeneID 83815) | 2 | 74.7 | 42.3 | inactive |
| Cenpq (GeneID 83815) | 3 | 51 | 84 | inactive |
| Dmkn (GeneID 73712) | 1 | 112 | 84.8 | inactive |
| Dmkn (GeneID 73712) | 2 | 78.9 | 78.8 | inactive |
| Dmkn (GeneID 73712) | 3 | 108 | 101 | inactive |
| Sdhd (GeneID 66925) | 1 | 85.3 | 68.7 | inactive |
| Sdhd (GeneID 66925) | 2 | 74.1 | 100 | inactive |
| Sdhd (GeneID 66925) | 3 | 86.4 | 102 | inactive |
| Ophn1 (GeneID 94190) | 1 | 75.5 | 72.7 | inactive |
| Ophn1 (GeneID 94190) | 2 | 196 | 69.6 | active |
| Ophn1 (GeneID 94190) | 3 | 60.3 | 68.9 | inactive |
| Epx (GeneID 13861) | 1 | 106 | 81.6 | inactive |
| Epx (GeneID 13861) | 2 | 75.2 | 57.4 | inactive |
| Epx (GeneID 13861) | 3 | 55.1 | 69.2 | inactive |
| Spry2 (GeneID 24064) | 1 | 127 | 85.2 | active |
| Spry2 (GeneID 24064) | 2 | 57 | 50.9 | inactive |
| Spry2 (GeneID 24064) | 3 | 45.6 | 32.5 | inactive |
| Pigq (GeneID 14755) | 1 | 83.8 | 153 | inactive |
| Pigq (GeneID 14755) | 2 | 59.9 | 77.6 | inactive |
| Pigq (GeneID 14755) | 3 | 0.341 | 96.3 | inactive |
| Trav13-5 (GeneID 219060) | 1 | 83.3 | 97.6 | inactive |
| Trav13-5 (GeneID 219060) | 2 | 66.8 | 80.4 | inactive |
| Trav13-5 (GeneID 219060) | 3 | 91 | 79.8 | inactive |
| Chrnb3 (GeneID 108043) | 1 | 65.2 | 80 | inactive |
| Chrnb3 (GeneID 108043) | 2 | 28 | 32.2 | inactive |
| Chrnb3 (GeneID 108043) | 3 | 34.1 | 60.7 | inactive |
| Pex6 (GeneID 224824) | 1 | 81.1 | 87.8 | inactive |
| Pex6 (GeneID 224824) | 2 | 115 | 91.6 | inactive |
| Vps13a (GeneID 271564) | 1 | 77.5 | 75.3 | inactive |
| Vps13a (GeneID 271564) | 2 | 17.6 | 29.6 | inactive |
| Vps13a (GeneID 271564) | 3 | 92.6 | 95.6 | inactive |
| Or2n1e (GeneID 170648) | 1 | 66.2 | 77.9 | inactive |
| Or2n1e (GeneID 170648) | 2 | 82.4 | 65.3 | inactive |
| Or2n1e (GeneID 170648) | 3 | 57.5 | 74.8 | inactive |
| Gm3579 (GeneID 100041932) | 1 | 69.2 | 91.9 | inactive |
| Gm3579 (GeneID 100041932) | 2 | 91.1 | 94.1 | inactive |
| Gm3579 (GeneID 100041932) | 3 | 39.1 | 36.7 | inactive |
| Xkr5 (GeneID 319581) | 1 | 62.1 | 71.7 | inactive |
| Xkr5 (GeneID 319581) | 2 | 71.2 | 88 | inactive |
| Xkr5 (GeneID 319581) | 3 | 97.9 | 106 | inactive |
| Snx13 (GeneID 217463) | 1 | 140 | 139 | active |
| Snx13 (GeneID 217463) | 2 | 101 | 104 | inactive |
| Snx13 (GeneID 217463) | 3 | 120 | 69 | inactive |
| Ap2a2 (GeneID 11772) | 1 | 102 | 93.7 | inactive |
| Ap2a2 (GeneID 11772) | 2 | 55.3 | 85 | inactive |
| Tmed1 (GeneID 17083) | 1 | 58.4 | 55.9 | inactive |
| Tmed1 (GeneID 17083) | 2 | 46.8 | 30.9 | inactive |
| Tmed1 (GeneID 17083) | 3 | 95.6 | 47.6 | inactive |
| Sap130 (GeneID 269003) | 1 | 66.4 | 53.2 | inactive |
| Sap130 (GeneID 269003) | 2 | 101 | 87.8 | inactive |
| Sap130 (GeneID 269003) | 3 | 26.2 | 43.1 | inactive |
| Or4p7 (GeneID 258203) | 1 | 81 | 63.7 | inactive |
| Or4p7 (GeneID 258203) | 2 | 56.9 | 59.4 | inactive |
| Or4p7 (GeneID 258203) | 3 | 38.9 | 103 | inactive |
